Reference: patent publication US20240182571A1
Results are given in words; binding and its absence hold for the method and conditions named. Some entries that bind do so weakly or less than the wild type.

The chains behind the UniProt entries cited, without tags or fusion partners. Residues count along the entry.
UniProt Q15116, residues 25-288: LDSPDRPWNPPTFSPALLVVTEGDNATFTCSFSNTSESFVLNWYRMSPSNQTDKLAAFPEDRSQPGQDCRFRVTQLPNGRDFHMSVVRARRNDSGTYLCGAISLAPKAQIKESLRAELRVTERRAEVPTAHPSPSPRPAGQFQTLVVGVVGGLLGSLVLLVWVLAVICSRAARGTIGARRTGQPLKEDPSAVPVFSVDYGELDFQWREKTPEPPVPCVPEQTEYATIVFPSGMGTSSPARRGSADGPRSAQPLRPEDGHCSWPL

What was measured:
PD-1 expressed on cells [1] = biological target: PD-1 expressed on cells (UniProt Q15116); experiment: flow cytometry (FACs analysis), U937 PD-1+ CD127+ cells co-cultured with U937 PD-1- CD127+ cells, detection with anti-human IgG PE, % cell binding
PD-1 expressed on cells [2] = biological target: PD-1 expressed on cells (UniProt Q15116); experiment: flow cytometry, 1:1 co-culture of U937 PD-1+ and U937 PD-1- cells, detection with anti-human IgG PE, % positive cells [middle panel]
PD-1 expressed on cells [3] = biological target: PD-1 expressed on cells (UniProt Q15116); experiment: flow cytometry, co-culture of U937 PD-1+ and PD-1- cells, anti IgG-PE; positive control staining

- binding (PD-1 expressed on cells [1]): binds
- binding (PD-1 expressed on cells [2]): binds
- binding (PD-1 expressed on cells [3]): binds
B1: anti PD-1*2 (antibody, human IgG4 S228P, kappa, V domains shown)
VH: QIQLVQSGSELKKPGASVKVSCKASGYTFTHYAMNWVRQAPGQGLEWMGWINTNTGEPTYAQGFTGRFVFSLDTSVSTAYLQISSLKAEDTAVYYCAREREPGMDNWGQGTLVTVSS
VL: DVVMTQSPLSLPVTLGQPASISCRSSQSLVHANTNTYLEWYQQRPGQSPRLLIYKVSNRFSGVPDRFSGSGSGTDFTLKISRVEAEDVGVYYCFQGTHVPNTFGQGTKLEIKR
